Test results from publication PMC3762827.
Results are given in words; binding and its absence hold for the method and conditions named. In cells and extracts the contact can be indirect. For some of these results: Sequences can lack the tags named with a protein.

Experiments:
mRFP-p62 (human) [1] = target: mRFP-p62 (human) (UniProt Q13501); experiment: co-IP; HEK293 co-transfected with mRFP-p62/GFP-Atg3/Flag-LC3 for 48 h; total cell lysates, IP of each of the three with the correspondent antibody (p62 antibody, GFP-trap, Flag M2), immunoblot
GFP-Atg3 (human) = GFP-Atg3 (human) (UniProt Q9NT62); experiment: as above
GFP-Atg4B (human) = target: T1, GFP-Atg4B (human) (UniProt Q9Y4P1); experiment: co-IP; HEK293 co-transfected with mRFP-p62/GFP-Atg4B/Flag-LC3 for 48 h; total cell lysates, IP of each of the three with the correspondent antibody (p62 antibody, GFP-trap, Flag M2), immunoblot
T1 sequence: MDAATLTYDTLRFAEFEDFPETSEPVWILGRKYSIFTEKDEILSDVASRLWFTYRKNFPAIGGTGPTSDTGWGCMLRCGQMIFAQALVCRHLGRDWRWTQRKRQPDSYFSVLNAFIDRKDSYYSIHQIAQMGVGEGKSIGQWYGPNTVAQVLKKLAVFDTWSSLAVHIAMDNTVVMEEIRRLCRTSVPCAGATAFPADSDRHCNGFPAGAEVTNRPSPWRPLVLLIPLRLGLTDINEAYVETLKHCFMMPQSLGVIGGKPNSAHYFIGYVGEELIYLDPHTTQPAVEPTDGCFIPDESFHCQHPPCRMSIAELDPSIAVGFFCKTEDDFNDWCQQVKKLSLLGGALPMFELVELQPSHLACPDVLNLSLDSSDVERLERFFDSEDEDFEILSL

mRFP-p62 (human) [2] = target: mRFP-p62 (human) (UniProt Q13501); experiment: as above

In the case of “GFP-Atg3 (from UniProt Q9NT62 1-314) (enzyme)”, the binding (mRFP-p62 (human) [1]) is reported as “no binding”.

In the case of mRFP-p62 (from UniProt Q13501 1-440), the binding (GFP-Atg3 (human)) is reported as “no binding” and the binding (GFP-Atg4B (human)) is reported as “no binding”.

B1: GFP-Atg4B (enzyme, UniProt Q9Y4P1 1-393)
chain: T1 sequence
In the case of B1, the binding (mRFP-p62 (human) [2]) is reported as “no binding”.
